Data taken from article PMC6949113, “Preclinical evaluation of AT-527, a novel guanosine nucleotide prodrug with potent, pan-genotypic activity against hepatitis C virus” (PLoS ONE, 2020).
This continues a long series; more values of the same kind are listed elsewhere.

Assay: Monkey PK study, liver and heart tissue levels
Type: in vivo, cynomolgus monkey
Conditions: for Mean Concentration at 4 hr Postdose, Heart: footnoted values extrapolated below LLOQ
Description: Monkey PK study. Male non-naïve cynomolgus monkeys were obtained from Hainan Jingang Laboratory Animal Co., Ltd. (Hainan, China), group housed during the 5-day acclimation period or individually housed during the study in stainless steel mesh cages, provided ad libitum access to RO water, fed twice daily (~120 g Certified Monkey Diet daily; Beijing Vital Keao Feed Co., Ltd., Beijing, China) and given daily treats of fresh fruit. Additional environmental enrichment included classical music and cartoons. Three groups of 5 monkeys each were administered 30, 100 or 300 mg/kg AT-527 as a powder filled in empty porcine hard gelatin capsules (size 0). The monkeys were fasted overnight prior to dosing and fed 4 h after dosing. Three dosages were selected to provide assessments of dose proportionality, the top two representing potential doses for a repeated oral dose toxicity study in monkeys, and the lowest predicted to be more therapeutically relevant. A pill gun was used to place the capsule beyond the root of the animals’ tongues and their mouths were held loosely closed for approximately 30 sec to allow them to move the jaw and swallow the capsule. Immediately following capsule administration, 20 mL of water was given by mouth and then the mouth was opened to ensure the capsule was swallowed. Blood samples (~0.6 mL) were collected up to 72 h from three animals per dose group, and up to 4 h from the remaining two animals in each group, at the same time points described for rats. […] Blood samples were collected with a syringe from a peripheral blood vessel from restrained, non-sedated animals, immediately transferred to pre-chilled tubes containing ~1 mg K2EDTA•2H20 and 20 μL of 5 mM dichlorvos solution, mixed and placed on ice until plasma was prepared by centrifugation as described for rats. Immediately after centrifugation, plasma samples were extracted with 4 volumes ISS2, and the supernatants were clarified by centrifugation (12,000 rpm, 10 min, 4°C) and stored at ≤ -60°C until analyzed by LC-MS/MS as described below. After the 4-hr blood collection, two monkeys per dose group were anesthetized with intravenous injection of pentobarbital sodium (60 mg/kg) and then euthanized as described for rats. […] All analytes were quantitated by LC-MS/MS as described below.
For the analysis of AT-9010 in rat tissue homogenate supernatant, aliquots were diluted 1:2 with water and injected onto an Agilent Zorbax Extend C18 5 μm, 2.1 × 50 mm column and a Sciex API 4000 mass spectrometer (ESI positive ion, MRM mode). Mobile phases A (0.001% ammonia and 0.18 mM DBAA in water (1:1, v/v) and B (10 mM dimethylhexylamine (DMHA) and 3 mM AA in 50% ACN in water) were used to elute samples (60 μL) at 0.7 mL/min with 2% B for 0.8 min followed by a linear gradient to 30% B over 0.4 min, isocratic elution at 30% B for 0.4 min, a linear gradient to 95% B over 0.4 min, and ending with 95% B for 0.4 min. The analysis of AT-9010 in monkey tissue homogenate supernatant was the same except the sample injection volume was 20 μL. Attempts to measure tissue levels of other potentially formed TPs, including 2,6-diaminopurine-2’-F-2’-C-methylribosyl-5’-triphosphate and 2-amino-6-methylaminopurine-2’-F-2’-C-methylribosyl-5’-triphosphate (M2-TP), also used this method.
For the analysis of M2 and M3 in monkey tissue homogenate supernatant, aliquots were diluted 1:3 with water and injected onto an Acuity HSS T3 1.8 μm, 2.1 × 50 mm column and a Sciex API 6500 mass spectrometer (ESI positive ion, MRM mode). Mobile phases A (0.3% FA and 10 mM AA in water and B (0.3% FA and 10 mM AA in 95% ACN in water) were used to elute samples (1 μL) at 0.6 mL/min with 0% B for 0.4 min followed by linear gradients to 30% B over 0.5 min and to 95% B over 0.2 min, ending with isocratic elution at 95% B for 0.4 min.

| Compound | Mean Concentration at 4 hr Postdose, Liver (AT-527 30 mg/kg oral) [pmol/g] | Mean Concentration at 4 hr Postdose, Heart (AT-527 30 mg/kg oral) [pmol/g] | Mean Concentration at 4 hr Postdose, Liver (AT-527 100 mg/kg oral) [pmol/g] | Mean Concentration at 4 hr Postdose, Heart (AT-527 100 mg/kg oral) [pmol/g] | Mean Concentration at 4 hr Postdose, Liver (AT-527 300 mg/kg oral) [pmol/g] | Mean Concentration at 4 hr Postdose, Heart (AT-527 300 mg/kg oral) [pmol/g] |
| --- | --- | --- | --- | --- | --- | --- |
| CNc1nc(N)nc2c1ncn2[C@@H]1O[C@H](CO[P@](=O)(O)N[C@@H](C)C(=O)O)[C@@H](O)[C@@]1(C)F [M1] | 319 | 86.3 | 671 | 187 | 3510 | 630 |
| CNc1nc(N)nc2c1ncn2[C@@H]1O[C@H](CO)[C@@H](O)[C@@]1(C)F [M4] | 381 | 180 | 1340 | 717 | 1950 | 1040 |
